Reference: patent US20100136537A1, “PHOTORECEPTOR PRECURSOR CELLS” (THE REGENTS OF THE UNIVERSITY OF MICHIGAN, priority 2006, published 2010)
“Also recorded” adds a separate entry of the source. At least one structure is not confirmed: it was looked up by name or label, or the drawing left a doubt.

What was measured:
NRL [1] = test: NRL expression in serum-starved Y79 cells (immunoblot, Northern blot); type: cell-based, human
Procedure: Cell Culture. Y79 human retinoblastoma cells (ATCC HTB 18) and HEK293 (ATCC CRL-1573) were maintained in RPMI 1640 and Dulbecco's modified Eagle's medium, respectively, under standard conditions with 15% (v/v) fetal bovine serum (FBS), penicillin G (100 units/ml), and streptomycin (100 μg/ml) at 37° C. and 5% CO2. For serum starvation and RA treatment experiments, Y79 cells (5×10^4) were cultured in the presence or absence of the serum (same batch of serum was used in all the experiments), at RA, 9-cis-RA, cycloheximide (CHX), and 4-(E-2-(5,6,7,8-tetrahydro-5,5,8,8-tetramethyl-2-naphthalenl)-1-propenyl) benzoic acid (TTNPB) at indicated concentrations. Me2SO or ethanol was added to Y79 cells in lieu of the soluble factors as negative control.
For protein synthesis inhibition experiments, Y79 cells were serum-starved for 24 h, and then simultaneously treated with RA and CHX for 8 or 24 h. NRL expression was analyzed by immunoblotting. In another set of experiments, serum-starved Y79 cells were first incubated with RA alone for 8 or 24 h and then CHX was added. Cell extracts were then analyzed 24 h later for examining NRL expression by immunoblotting.
(§1) Protein Expression Analysis.

NRL [2] = test: NRL expression in newborn rat retinal cell cultures (immunoblot); type: cell-based; details: chemically defined (serum-free) culture, 24 h treatment, RA 1-40 μM
Procedure: Primary cultures of new-born rat retinal cells and enriched adult porcine photoreceptors were prepared as described (See Traverso et al., (2003) Investig. Ophthalmol. Vis. Sci. 44, 4550-4558). For newborn rat retinal cultures, rat pups were anesthetized and decapitated, the retinas dissected into CO2-independent Dulbecco's modified Eagle's medium and chopped into small fragments. The fragments were washed twice in Ca/Mg-free PBS and then digested in PBS containing 0.1% papain for 25 min at 37° C. Tissue was dissociated by repeated passage through flame polished Pasteur pipettes, then seeded into tissue culture plates precoated with laminin, in Neurobasal A medium (Invitrogen) containing 2% FBS. After 48 h, medium was changed to a chemically defined formula (Neurobasal A supplemented with B27) for a further 48 h, and then treated.
Experimental Treatments and Immunochemistry. […] RA was added to test wells (1, 5, 10, 20, and 40 μM, stock solution prepared in Me2SO, 10 μl/well).
as §1

mouse Nrl promoter [3] = test: Nrl promoter-luciferase assay in serum-deprived Y79 cells; type: cell-based, human; details: pGL3-Ns construct
From the text: (§2) Plasmid Constructs. DNA fragments of 2.5 kb (Nl), 1.2 kb (Nm), and 200 by (Ns) from the 5′-flanking region of the mouse Nrl promoter (GENBANK: AY526079; (See Akimoto et al., (2006) Proc. Natl. Acad. Sci. U.S.A. 103, 3890-3895) were amplified and cloned into pGL3-basic vector (Promega, Madison, Wis.) in-frame with the luciferase reporter gene. The following site-directed mutants of the Nrl promoter were generated from pGL3-Nl using the QUICKCHANGE site-directed mutagenesis kit (Stratagene, La Jolla, Calif.) and sequence-verified: pGL3-Nl-mutIII-1, pGL3-Nl-mutIII-2, and pGL3-Nl-mutII-1, containing deletion of the putative RAREs at positions −781 to −767, −709 to −700, and −453 to −443, respectively.
Transient Transfection and Luciferase Assay. Transient transfection of Y79 cells was performed using FUGENE 6 reagent (Roche Diagnostics, Indianapolis, Ind.). Prior to transfection, cells were serum-starved 24 h in OPTI-MEM (Invitrogen), diluted to 1.5×10^5 cells in 250 μl and seeded into 24-well plates. Transfection was performed with 0.5 μg of promoter-luciferase construct and 1.5 μl of FUGENE 6. […] Luciferase activity was measured using the Luciferase Assay System (Promega, Madison, Wis.). Experiments were repeated at least three times, and the luciferase activity was calculated as a fold change from the base line luciferase activity obtained in the presence of vector only.

mouse Nrl promoter [4] = test: Nrl promoter-luciferase assay in HEK293 cells; type: cell-based
From the text: as §2
Transient transfection of HEK293 (ATCC CRL-1573) cells was performed using LIPOFECTAMINE (Invitrogen) according to the manufacturer's instructions. The wild type and mutant Nrl promoter-luciferase constructs, and pCMV-β-gal were added to the cells at a concentration of 0.1 μg and 0.05 μg, respectively. After 3 h, 100 μl of Dulbecco's modified Eagle's medium with 0 or 500 nM at RA was added to each well. Cells were harvested after 24 h in 100 μl of GLO lysis buffer (Promega), and luciferase activity was measured.

NRL [5] = test: NRL expression in adult pig photoreceptor cultures (immunoblot, immunocytochemistry)

Question: `CC1=C(/C=C/C(C)=C/C=C/C(C)=C/C(=O)O)C(C)(C)CCC1` [at RA] was tested. Which “NRL transcripts (Northern blot)” value (NRL [1]; RNA from treated Y79 cells) did it give?
Answer: induction of NRL transcripts

Question: And the “NRL expression (immunoblot)” value (NRL [1]; serum-starved Y79 cells, 24 h incubation)?
Answer: dose-dependent increase in NRL expression

Question: And the “NRL immunoreactive band intensity” value (NRL [2])?
Answer: increased the NRL band intensity; also recorded: partially restored

Question: What about the “increase in reporter activity” value (mouse Nrl promoter [3]) of the same molecule?
Answer: did not show a detectable increase

Question: And the “luciferase activity with RARE deletion constructs pGL3-Nl-mutIII-1 and pGL3-Nl-mutIII-2” value (mouse Nrl promoter [4]; 500 nM at RA)?
Answer: reduction in luciferase activity

Question: And the “luciferase activity with deletion of the putative RXR binding site (pGL3-Nl-mutII-1)” value (mouse Nrl promoter [4]; at RA)?
Answer: did not have any appreciable effect

Question: And the “nuclear NRL immunolabeling (immunocytochemistry)” value (NRL [5]; RA 10 μM, 24 h)?
Answer: strong nuclear NRL immunoreactivity

Question: And the “NRL immunoreactive band intensity” value (NRL [5]; chemically defined (serum-free) culture, 24 h treatment, RA 1-40 μM)?
Answer: partially restored
